At least one structure is not confirmed: it was looked up by name or label, or the drawing left a doubt.
Test system: HFSCs
Assay: HFSC growth, survival and colony formation in 3D Matrigel culture
Format: cell-based, mouse
Conditions: serum-free media

In the case of CCCCCCCCCCCCCCCC(=O)O [palmitate], the HFSC colony growth is reported as “able to sustain a reduced level of HFSC growth alone”.
